This test deals with chorismate mutase (Cmu1), GAL4 fusions. Briefly: two-hybrid.

Chains of the proteins cited; added tags and fusions are not shown. Residues count along the entry.
UniProt A0A0D1DWQ2, residues 22-290: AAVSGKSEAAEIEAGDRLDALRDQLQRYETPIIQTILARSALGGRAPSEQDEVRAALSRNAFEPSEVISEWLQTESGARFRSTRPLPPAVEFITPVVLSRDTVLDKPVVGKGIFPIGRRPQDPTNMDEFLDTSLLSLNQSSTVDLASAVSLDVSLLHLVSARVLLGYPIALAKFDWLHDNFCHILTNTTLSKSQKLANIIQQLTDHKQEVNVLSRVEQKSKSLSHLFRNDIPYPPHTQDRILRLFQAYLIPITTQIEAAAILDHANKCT

No constants are given. Whether binding was seen depends on the method and setting. Some binding calls cover weakened binding; strength is not graded here.

On to “chorismate mutase (Cmu1), GAL4 fusions (from UniProt A0A0D1DWQ2 22-290) (enzyme)”, for which the binding entry was “binds”.

For the origin of these results see paper PMC10128019.
